Values from PubChem BioAssay AID504784 (Drosophila RNAi Screening Center, 2011)
In all, the deposit lists about 17,000 reagents; this is a random part of those with a known target gene and a result. 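Each column is one replicate's B-score; the combined score over replicates was not deposited, so single values may mislead.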 A plus sign joins genes that one reagent is predicted to hit.

Purpose: 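Genome-wide knock-down for genes giving too much or too little stored lipid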 (primary screen)
System: Drosophila Kc167 embryonic cells
Knock-down reagent: long dsRNA against Drosophila genes, about 250 ng dsRNA per well
Time to read-out: 4 days
Conditions: cells fed 400 µM oleic acid bound to BSA
Read-out: 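Cells imaged and segmented; ratio of lipid droplet area to nuclear area, log-transformed, then normalised as a B-score over the screen; higher means more stored lipid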
Direction: droplet/nuclear area B-score: higher = more stored lipid (overstorage)

no.	gene	amplicon	droplet/nuclear area B-score, replicate 1	droplet/nuclear area B-score, replicate 2	droplet/nuclear area B-score, replicate 3
1	CG5768	DRSC15870	-0.429	-0.0116	
2	ey	DRSC17173	-0.677	0.279	
3	CG32195	DRSC09533	-1.09	0.215	
4	Mocs1	DRSC11225	0.154	1.2	
5	Brms1	DRSC19896	-2.6	-2.99	-1.39
6	CG11722	DRSC14358	2.7	1.98	
7	Prosalpha7	DRSC07516	1.27	-0.167	
8	Cht8	DRSC04546	1.99	-0.882	
9	CG15879	DRSC08487	-1.52	0.00339	
10	CG7542	DRSC10868	0.22	-0.169	
11	Vps52	DRSC03050	1.06	-0.513	
12	CG14511	DRSC14863	0.213	-0.871	
13	Hsp70Bc	DRSC16053	2.35	2.48	
14	exd	DRSC20330	0.909	-1.13	
15	ich	DRSC14448	1.9	-0.987	
16	CG12923	DRSC06237	-0.647	-2.37	
17	CG32040	DRSC22459	-0.466	-0.155	
18	wde	DRSC05955	-0.00377	-0.332	
19	slo	DRSC17057	2.67	-0.306	
20	sNPF	DRSC02309	0.805	0.442	
21	Vps53	DRSC00595	0.312	-0.298	
22	IleRS	DRSC11667	-0.303	-1.25	-0.141
23	Sdb	DRSC06272	0.208	-0.22	
24	Sdb	DRSC06273	-0.282	0.00186	
25	Sdb	DRSC07155	1.46	-0.166	
26	CG18545	DRSC15343	0.0127	-0.112	
27	Drice	DRSC16715	-1.35	8.37	
28	CG18324	DRSC06721	-0.735	0.0531	
29	mRpS21	DRSC12965	-1.06	0.216	
30	mRpS21	DRSC21357	-0.649	-0.147	
31	Cat	DRSC11110	-0.994	-0.29	
32	Mtpalpha	DRSC01994	0.749	1.89	
33	nmd	DRSC02856	1.21	-1.19	
34	TotM	DRSC02355	-0.344	-0.5	
35	CG11050	DRSC02125	-4.05	-2.54	
36	CG3630	DRSC18499	-0.195		
37	mRpS10	DRSC15557	-0.037	-0.0251	
38	UbcE2H	DRSC18221	1.29	0.57	0.0146
39	CG33506	DRSC05981	-0.839	-0.52	
40	tor	DRSC07707	-0.163	0.195	
41	Wbp2	DRSC09821	3.87	1.12	
42	CG1074	DRSC12143	-2.71	-2.67	-0.39
43	l(1)G0020	DRSC18198	1.02	3.58	
44	Tsp42Ed	DRSC05940	-0.37	-2.33	
45	Mocs2A + Mocs2B	DRSC13697	-0.256	-1.14	
46	Mocs2A + Mocs2B	DRSC14219	1.46	-1.53	
47	CG17855	DRSC02638	0.273	0.334	
48	mRpL11	DRSC15482	0.711	4.78	
49	CG2750	DRSC19867	0.265	0.123	-0.236
50	TwdlF	DRSC12225	-0.239	-0.924	-0.783
51	CG14851	DRSC14975	-0.112	0.354	
52	CG14851	DRSC21500	0.848	0.0438	
53	vri	DRSC03633	-1.08	2.25	
54	vri	DRSC23174	-1.04	-1.17	
55	CG12071	DRSC14471	-2.28	-1.39	
56	CG12071	DRSC22972	2.94	0.363	
57	CG12436 (retired record)	DRSC09869	-0.647	0.396	
58	CG12436 (retired record)	DRSC09885	1.34	-0.487	
59	CG9672	DRSC20201	-1.31	-1.2	
60	CG43693	DRSC09086	-0.896	0.579	
61	CG43693	DRSC10625	2.01	1.3	
62	CG10445	DRSC14247	-0.937	0.0679	
63	CG15293	DRSC01919	-0.477	-1.77	
64	CG42553	DRSC08356	1.31	1.23	
65	Cpr56F	DRSC07326	0.894	-0.00884	
66	CAH9	DRSC15963	0.842	-0.551	
67	CanB	DRSC18449	2.62	1.5	
68	CG14107	DRSC10110	3.08	2.6	
69	CG14752	DRSC06488	-0.0546	0.097	
70	CG15459	DRSC20530	0.00784	-0.00388	
71	CG15459	DRSC21383	0.974	-0.00742	
72	CG7518	DRSC16253	-0.0296	-0.0911	
73	bora	DRSC10744	-0.815	-0.354	-1.09
74	CG4053	DRSC15538	0.716	-1.61	-0.318
75	Exo84	DRSC15965	-0.0575	0.0558	
76	CG4301	DRSC19886	0.675	1.63	
77	CG7567	DRSC16258	0.0019	0.772	
78	Shaw	DRSC00433	0.356	0.527	
79	Shaw	DRSC00788	-1.52	-2.12	2.14
80	Shaw	DRSC21368	1.92	1.89	
81	CR31032	DRSC22457	0.707	-1.11	
82	aph-1	DRSC00547	-1.4	-1.44	
83	Dlip1	DRSC18460	0.448	0.371	-0.28

Ordered by “droplet/nuclear area B-score, replicate 1” (low to high): some entries from above
gene	amplicon	droplet/nuclear area B-score, replicate 1	droplet/nuclear area B-score, replicate 2	droplet/nuclear area B-score, replicate 3
CG15879	DRSC08487	-1.52	0.00339	
CG14511	DRSC14863	0.213	-0.871	
CG7542	DRSC10868	0.22	-0.169	
Vps52	DRSC03050	1.06	-0.513	
Hsp70Bc	DRSC16053	2.35	2.48	
